Source: article doi:10.1101/2020.12.21.423744
No constants are given. Whether binding was seen depends on the method and setting. In cells and extracts the contact can be indirect. Some results given as binding are weak or reduced against the parent protein; the word gives no strength.

Protein sequences, listed by entry. Tags and fused reporters are not part of them. Residues count along the entry.
UniProt P02545, residues 1-646: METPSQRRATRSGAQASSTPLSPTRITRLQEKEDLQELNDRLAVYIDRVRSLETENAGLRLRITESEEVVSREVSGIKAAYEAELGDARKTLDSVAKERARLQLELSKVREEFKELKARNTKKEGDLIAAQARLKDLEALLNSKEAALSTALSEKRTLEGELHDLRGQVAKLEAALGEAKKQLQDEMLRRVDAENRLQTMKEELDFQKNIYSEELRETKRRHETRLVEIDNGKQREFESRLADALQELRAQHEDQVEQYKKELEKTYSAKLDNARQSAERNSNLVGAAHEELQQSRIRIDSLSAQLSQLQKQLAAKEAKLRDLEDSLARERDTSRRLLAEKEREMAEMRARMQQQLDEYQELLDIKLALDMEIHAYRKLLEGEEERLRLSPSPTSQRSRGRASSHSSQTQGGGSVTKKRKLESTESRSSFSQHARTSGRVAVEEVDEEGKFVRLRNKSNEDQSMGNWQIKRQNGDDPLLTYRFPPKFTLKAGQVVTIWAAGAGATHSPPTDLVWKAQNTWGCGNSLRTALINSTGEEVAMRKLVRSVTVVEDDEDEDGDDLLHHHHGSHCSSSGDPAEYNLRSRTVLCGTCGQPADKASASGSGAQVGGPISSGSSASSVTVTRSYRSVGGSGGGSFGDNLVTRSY
UniProt Q86WV6: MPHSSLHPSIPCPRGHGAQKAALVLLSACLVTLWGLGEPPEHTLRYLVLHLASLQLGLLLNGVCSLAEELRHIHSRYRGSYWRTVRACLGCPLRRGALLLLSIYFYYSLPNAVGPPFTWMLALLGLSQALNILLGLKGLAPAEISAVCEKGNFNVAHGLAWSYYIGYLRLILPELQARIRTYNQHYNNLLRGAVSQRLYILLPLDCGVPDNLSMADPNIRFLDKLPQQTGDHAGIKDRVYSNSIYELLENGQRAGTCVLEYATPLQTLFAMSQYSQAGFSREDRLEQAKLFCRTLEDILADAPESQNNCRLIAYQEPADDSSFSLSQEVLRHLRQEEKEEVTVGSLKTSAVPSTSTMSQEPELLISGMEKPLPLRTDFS

Target: Lamin A-GFP (UniProt P02545)
Assay: FRET or BRET

STING-RFP (from UniProt Q86WV6 1-379)
binding: binds
